# Results taken from the supplement of paper PMC8728848.
# The list shows a part of the results.
# B1: Ovorubin (Pomacea canaliculata), J7I2T6 (protein)
# chain: MFVATSLLLAIATLVVRASPHNYLIMDIEPPKSVSERDILNLLSPLQVKHSFRVTGSTRLLIVIRLDAQSYEKLDEITVPGKVEVIPAVNMADTMERCGVSWPRVELTDDNVTLFESESTLTDVTKEQLKAMLIGYGEHMSGLLQAHRFEYYQAAGATPHRHFVFVNSVPDEIEVFGREGVDIWGGPGEFVVKPQYVTRI
# Experiments:
# Experiment in all cases: glycan array binding signal (z-score within array); higher = stronger binding
# Details in all cases: glycan notation: IUPAC condensed, linker removed
# [1] = molecular target: Gal(b1-4)GlcNAc(b1-3)Gal(b1-4)GlcNAc(b1-2)Man(a1-3)[Gal(b1-4)GlcNAc(b1-3)Gal(b1-4)GlcNAc(b1-2)Man(a1-6)]Man(b1-4)GlcNAc(b1-4)[Fuc(a1-6)]GlcNAc
# Summary of the method: (§1)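 Glycan array binding is given as a within-array Z-score, which can be read as non-binding when negative. The arrays, 3228 of them, came from the Consortium for Functional Glycomics database and were retained only where the protein sequence was available. Z-scores were averaged across arrays of the same protein sequence at different concentrations or buffers and across linkers.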
# [2] = molecular target: Gal(b1-4)GlcNAc(b1-3)Gal(b1-4)GlcNAc(b1-2)[Gal(b1-4)GlcNAc(b1-3)Gal(b1-4)GlcNAc(b1-6)]Man(a1-6)[Gal(b1-4)GlcNAc(b1-3)Gal(b1-4)GlcNAc(b1-2)Man(a1-3)]Man(b1-4)GlcNAc(b1-4)GlcNAc
# Summary of the method: as §1
# [3] = molecular target: Gal(b1-4)GlcNAc(b1-3)Gal(b1-4)GlcNAc(b1-2)[Gal(b1-4)GlcNAc(b1-3)Gal(b1-4)GlcNAc(b1-6)]Man(a1-6)[Gal(b1-4)GlcNAc(b1-3)Gal(b1-4)GlcNAc(b1-2)Man(a1-3)]Man(b1-4)GlcNAc(b1-4)[Fuc(a1-6)]GlcNAc
# Summary of the method: as §1
# [4] = molecular target: Gal(b1-4)GlcNAc(b1-3)Gal(b1-4)GlcNAc(b1-3)Gal(b1-4)GlcNAc
# Summary of the method: as §1
# [5] = molecular target: Gal(b1-4)GlcNAc(b1-3)Gal(b1-4)GlcNAc(b1-3)Gal(b1-4)GlcNAc(b1-2)Man(a1-3)[Gal(b1-4)GlcNAc(b1-3)Gal(b1-4)GlcNAc(b1-3)Gal(b1-4)GlcNAc(b1-2)Man(a1-6)]Man(b1-4)GlcNAc(b1-4)GlcNAc
# Summary of the method: as §1
# [6] = molecular target: Gal(b1-4)GlcNAc(b1-3)Gal(b1-4)GlcNAc(b1-3)Gal(b1-4)GlcNAc(b1-2)Man(a1-3)[Gal(b1-4)GlcNAc(b1-3)Gal(b1-4)GlcNAc(b1-3)Gal(b1-4)GlcNAc(b1-2)Man(a1-6)]Man(b1-4)GlcNAc(b1-4)[Fuc(a1-6)]GlcNAc
# Summary of the method: as §1
# [7] = molecular target: Gal(b1-4)GlcNAc(b1-3)Gal(b1-4)GlcNAc(b1-3)Gal(b1-4)GlcNAc(b1-2)[Gal(b1-4)GlcNAc(b1-3)Gal(b1-4)GlcNAc(b1-3)Gal(b1-4)GlcNAc(b1-6)]Man(a1-6)[Gal(b1-4)GlcNAc(b1-3)Gal(b1-4)GlcNAc(b1-3)Gal(b1-4)GlcNAc(b1-2)Man(a1-3)]Man(b1-4)GlcNAc(b1-4)[Fuc(a1-6)]GlcNAc
# Summary of the method: as §1
# [8] = molecular target: Gal(b1-4)GlcNAc(b1-3)Gal(b1-4)GlcNAc(b1-3)Gal(b1-4)GlcNAc(b1-3)Gal(b1-4)GlcNAc(b1-2)Man(a1-3)[Gal(b1-4)GlcNAc(b1-3)Gal(b1-4)GlcNAc(b1-3)Gal(b1-4)GlcNAc(b1-3)Gal(b1-4)GlcNAc(b1-2)Man(a1-6)]Man(b1-4)GlcNAc(b1-4)GlcNAc
# Summary of the method: as §1
# [9] = molecular target: Gal(b1-4)GlcNAc(b1-3)Gal(b1-4)GlcNAc(b1-3)Gal(b1-4)GlcNAc(b1-3)Gal(b1-4)GlcNAc(b1-2)Man(a1-3)[Gal(b1-4)GlcNAc(b1-3)Gal(b1-4)GlcNAc(b1-3)Gal(b1-4)GlcNAc(b1-3)Gal(b1-4)GlcNAc(b1-2)Man(a1-6)]Man(b1-4)GlcNAc(b1-4)[Fuc(a1-6)]GlcNAc
# Summary of the method: as §1
# [10] = molecular target: Gal(b1-4)GlcNAc(b1-3)Gal(b1-4)GlcNAc(b1-3)Gal(b1-4)GlcNAc(b1-3)Gal(b1-4)GlcNAc(b1-2)[Gal(b1-4)GlcNAc(b1-3)Gal(b1-4)GlcNAc(b1-3)Gal(b1-4)GlcNAc(b1-3)Gal(b1-4)GlcNAc(b1-6)]Man(a1-6)[Gal(b1-4)GlcNAc(b1-3)Gal(b1-4)GlcNAc(b1-3)Gal(b1-4)GlcNAc(b1-3)Gal(b1-4)GlcNAc(b1-2)Man(a1-3)]Man(b1-4)GlcNAc(b1-4)[Fuc(a1-6)]GlcNAc
# Summary of the method: as §1
# [11] = molecular target: Gal(b1-4)GlcNAc(b1-3)Gal(b1-4)GlcNAc(b1-3)Gal(b1-4)GlcNAc(b1-3)Gal(b1-4)GlcNAc(b1-3)Gal(b1-4)GlcNAc(b1-2)Man(a1-3)[Gal(b1-4)GlcNAc(b1-3)Gal(b1-4)GlcNAc(b1-3)Gal(b1-4)GlcNAc(b1-3)Gal(b1-4)GlcNAc(b1-3)Gal(b1-4)GlcNAc(b1-2)Man(a1-6)]Man(b1-4)GlcNAc(b1-4)GlcNAc
# Summary of the method: as §1
# [12] = molecular target: Gal(b1-4)GlcNAc(b1-3)Gal(b1-4)GlcNAc(b1-3)Gal(b1-4)GlcNAc(b1-3)Gal(b1-4)GlcNAc(b1-3)Gal(b1-4)GlcNAc(b1-2)Man(a1-3)[Gal(b1-4)GlcNAc(b1-3)Gal(b1-4)GlcNAc(b1-3)Gal(b1-4)GlcNAc(b1-3)Gal(b1-4)GlcNAc(b1-3)Gal(b1-4)GlcNAc(b1-2)Man(a1-6)]Man(b1-4)GlcNAc(b1-4)[Fuc(a1-6)]GlcNAc
# Summary of the method: as §1
# [13] = molecular target: Gal(b1-4)GlcNAc(b1-3)Gal(b1-4)GlcNAc(b1-3)Gal(b1-4)GlcNAc(b1-3)Gal(b1-4)GlcNAc(b1-3)Gal(b1-4)GlcNAc(b1-2)[Gal(b1-4)GlcNAc(b1-3)Gal(b1-4)GlcNAc(b1-3)Gal(b1-4)GlcNAc(b1-3)Gal(b1-4)GlcNAc(b1-3)Gal(b1-4)GlcNAc(b1-6)]Man(a1-6)[Gal(b1-4)GlcNAc(b1-3)Gal(b1-4)GlcNAc(b1-3)Gal(b1-4)GlcNAc(b1-3)Gal(b1-4)GlcNAc(b1-3)Gal(b1-4)GlcNAc(b1-2)Man(a1-3)]Man(b1-4)GlcNAc(b1-4)[Fuc(a1-6)]GlcNAc
# Summary of the method: as §1
# [14] = molecular target: Gal(b1-4)GlcNAc(b1-3)Gal(b1-4)GlcNAc(b1-3)Gal(b1-4)GlcNAc(b1-3)Gal(b1-4)GlcNAc(b1-3)Gal(b1-4)GlcNAc(b1-3)Gal(b1-4)GlcNAc(b1-2)Man(a1-3)[Gal(b1-4)GlcNAc(b1-3)Gal(b1-4)GlcNAc(b1-3)Gal(b1-4)GlcNAc(b1-3)Gal(b1-4)GlcNAc(b1-3)Gal(b1-4)GlcNAc(b1-3)Gal(b1-4)GlcNAc(b1-2)Man(a1-6)]Man(b1-4)GlcNAc(b1-4)GlcNAc
# Summary of the method: as §1
# [15] = molecular target: Gal(b1-4)GlcNAc(b1-3)Gal(b1-4)GlcNAc(b1-3)GalNAc
# Summary of the method: as §1
# [16] = molecular target: Gal(b1-4)GlcNAc(b1-3)Gal(b1-4)GlcNAc(b1-3)[Gal(b1-4)GlcNAc(b1-3)Gal(b1-4)GlcNAc(b1-6)]GalNAc
# Summary of the method: as §1
# [17] = molecular target: Gal(b1-4)GlcNAc(b1-3)Gal(b1-4)GlcNAc(b1-6)[Gal(b1-3)]GalNAc
# Summary of the method: as §1
# [18] = molecular target: Gal(b1-4)GlcNAc(b1-3)Gal(b1-4)[Fuc(a1-3)]GlcNAc(b1-3)Gal(b1-4)[Fuc(a1-3)]GlcNAc
# Summary of the method: as §1
# [19] = molecular target: Gal(b1-4)GlcNAc(b1-3)GalNAc
# Summary of the method: as §1
# [20] = molecular target: Gal(b1-4)GlcNAc(b1-3)[Fuc(a1-3)GlcNAc(b1-6)]Gal(b1-4)Glc
# Summary of the method: as §1
# [21] = molecular target: Gal(b1-4)GlcNAc(b1-3)[Gal(b1-4)GlcNAc(b1-6)]Gal(b1-4)GlcNAc
# Summary of the method: as §1
# [22] = molecular target: Gal(b1-4)GlcNAc(b1-3)[GlcNAc(b1-6)]Gal(b1-4)GlcNAc
# Summary of the method: as §1
binder,measurement,setting,value
B1,glycan array binding signal (z-score),[1],1.69
same,glycan array binding signal (z-score),[2],1.48
same,glycan array binding signal (z-score),[3],-0.253
same,glycan array binding signal (z-score),[4],-0.822
same,glycan array binding signal (z-score),[5],0.387
same,glycan array binding signal (z-score),[6],0.042
same,glycan array binding signal (z-score),[7],1.47
same,glycan array binding signal (z-score),[8],-0.132
same,glycan array binding signal (z-score),[9],0.326
same,glycan array binding signal (z-score),[10],2.18
same,glycan array binding signal (z-score),[11],1.6
same,glycan array binding signal (z-score),[12],0.92
same,glycan array binding signal (z-score),[13],2.67
same,glycan array binding signal (z-score),[14],0.062
same,glycan array binding signal (z-score),[15],-0.072
same,glycan array binding signal (z-score),[16],-0.199
same,glycan array binding signal (z-score),[17],-0.3
same,glycan array binding signal (z-score),[18],-0.444
same,glycan array binding signal (z-score),[19],-0.423
same,glycan array binding signal (z-score),[20],-0.438
same,glycan array binding signal (z-score),[21],-0.984
same,glycan array binding signal (z-score),[22],-1.08

# Two consecutive records already listed:
binder,measurement,setting,value
B1,glycan array binding signal (z-score),[19],-0.423
same,glycan array binding signal (z-score),[20],-0.438
